Assay results: ChEMBL document CHEMBL1146131, “3D-QSAR studies of farnesyltransferase inhibitors: a comparative molecular field analysis approach” (Bioorg Med Chem Lett, 2006)

Target: Protein farnesyltransferase (Homo sapiens, UniProt P49354+P49356)
Experiment: Inhibition of FTase
Format: protein-complex assay

COc1cccc(-c2cc(C#N)ccc2COC(c2ccc(C#N)cc2)c2cncn2C)c1 (stereo unspecified)
IC50: 355 nM
